# PMC12670160, “A drug-repurposing screen of FDA- and EMA-approved drugs identifies two NF-κB inhibitors active against eumycetoma” (Journal of Antimicrobial Chemotherapy, 2025)
# Counter-ions that a name gives are not always drawn. About 130 (2.5%) of roughly 5,300 compounds showed an effect of 50% or more. Some of the results follow. Square brackets hold non-standard residues; d marks the D form. Peptide text beside a SMILES is read from it. dTrp(2-Me) = Cc1[nH]c2ccccc2c1C[C@@H](N)C(=O)O
# System: M. mycetomatis strain mm55
# Conditions: primary screen, metabolic activity vs growth control; 96 h, 2 µM; inhibitor
row,SMILES,% viability [%]
1,"O=C(O)CCc1cc(I)c(Oc2ccc(O)cc2)c(I)c1 [ONC0002173, diiodothyropropionicacid]",86.95
2,"CSc1ccccc1Nc1nc(N2CCNCC2)nc2c(NCC3CC3)ncnc12.Cl [ONC0001097, khkin1 hydrochloride]",76.94
3,"c1ccc(CNc2ncnc3nc[nH]c23)cc1 [ONC0002348, 6benzylaminopurine]",76.84
4,"NS(=O)(=O)c1ccc(-n2nc(C(F)(F)F)cc2-c2ccc(Cl)cc2)cc1 [ONC0001433, sc236]",79.78
5,"O=C1NC(=O)C(=Cc2ccc(-c3ccc(F)cc3)o2)S1 (stereo in doubt) [ONC0005200, cay10505]",213
6,"CC(C)(O)c1ccccc1CC[C@@H](SCC1(CC(=O)O)CC1)c1cccc(/C=C/c2ccc3ccc(Cl)cc3n2)c1 [ONC0004006, montelukast sodium]",92.07
7,"CC(C)c1cc(C(C)C)c(-c2csc(N(CCN(C)C)Cc3cccnc3)n2)c(C(C)C)c1 [ONC0005406, foropafant]",117
8,"O=C1NC(=O)C(c2ccccc2)(c2ccccc2)N1 [ONC0000481, phenytoin sodium]",60.33
9,"CN1CCC2=C(C1)C(c1ccccc1)c1ccccc12 (stereo not shown) [ONC0001922, phenindamine]",47.96
10,"C1=C/COCc2cc(ccc2OCCN2CCCC2)Nc2nccc(n2)-c2cccc(c2)COC/1 [ONC0004380, pacritinib sb1518]",107.6
11,"O=C(Nc1ccccc1)Nc1ccc(-c2ccc(C(=O)[C@@H]3CCC[C@H]3C(=O)O)cc2)cc1 [ONC0004312, a922500]",88.03
12,"Nc1ccc(C(=O)OCC(O)CO)cc1 (stereo not shown) [ONC0005452, lisadimate]",96.74
13,"OC[C@@H](O)[C@@H](O)[C@@H](O)CO [ONC0002737, ribitol adonitol]",100.4
14,"CN(C)C/C=C/C(=O)Nc1cc2c(Nc3ccc(F)c(Cl)c3)ncnc2cc1O[C@H]1CCOC1 [ONC0000723, afatinib dimaleate]",74.8
15,"CN1Cc2c(N)cccc2C(c2ccccc2)C1 (stereo not shown) [ONC0001212, nomifensine]",87.63
16,"CN(C)C(=O)Oc1ccc[n+](C)c1 [ONC0004690, pyridostigmine bromide mestinon]",116.6
17,"Nc1c2c(nc3ccccc13)CCCC2O (stereo not shown) [ONC0002339, hydroxytacrinemaleaters]",82.36
18,"Nc1ccn([C@@H]2CS[C@H](CO)O2)c(=O)n1 [ONC0002447, lamivudine]",126.7
19,"Cc1cc(N)c2ccccc2[n+]1CCCCCCCCCC[n+]1c(C)cc(N)c2ccccc21 [ONC0003143, dequalinium chloride]",80.42
20,"COc1ccccc1OCC(O)COC(N)=O (stereo not shown) [ONC0000414, methocarbamol]",76.82

row,SMILES,% viability [%]
1,"COc1cc(N2CCC(N3CCN(C)CC3)CC2)ccc1Nc1ncc(Cl)c(Nc2ccccc2P(C)(C)=O)n1 [ONC0000933, brigatinib]",88.97
2,"Cc1[nH]c2ccccc2c1C[C@@H](NC(=O)[C@@H](N)Cc1cnc[nH]1)C(=O)N[C@@H](C)C(=O)N[C@@H](Cc1c[nH]c2ccccc12)C(=O)N[C@H](Cc1ccccc1)C(=O)N[C@@H](CCCCN)C(N)=O [ONC0005614, examorelin] (H-H[dTrp(2-Me)]AW[dF]K-NH2)",66.44
3,"NNC(=O)CSc1nc2scc(-c3ccccc3)c2c(=O)n1-c1ccccc1 [ONC0002540, ldn27219]",64.26
4,"CC(NC(=O)CCc1nc(=O)c2ccccc2[nH]1)c1ccccc1 (stereo not shown) [ONC0005174, me0328]",117.9
5,"COc1ccc(C(=O)/C(Br)=C/C(=O)O)cc1 [ONC0005546, bromebricacid]",94.54
6,"Cc1c(CN(C)C(=O)/C=C/c2cnc3c(c2)CCC(=O)N3)oc2ccccc12 [ONC0001083, afn1252]",61.58
7,"COc1cc(OC)nc(O[C@H](C(=O)O)C(OC)(c2ccccc2)c2ccccc2)n1 [ONC0002004, darusentan]",83.46
8,"O=C(NC1CCN(CCc2c[nH]c3ccccc23)CC1)c1ccccc1 [ONC0001966, indoramin]",68.77
9,"O=C1/C(=C/c2ccccc2)C(NC2CCCCC2)c2ccccc21 (stereo not shown) [ONC0002937, cid5458317]",97.61
10,"CCNC(=O)/C=C/c1cccc(Br)c1 [ONC0000527, cinromide]",96.44
11,"NC1CCN(c2nc3c(cc2F)c(=O)c(C(=O)O)cn3-c2ccc(F)cc2F)C1 (stereo not shown) [ONC0003219, tosufloxacin]",74.9
12,"Cn1ccc2cc3c(cc21)CCN3C(=O)Nc1cccnc1 [ONC0001371, sb206553]",94.08
13,"Cc1c(-c2ccccc2F)[nH]c(N)c1C#N [ONC0003774, ns8]",112.5
14,"CCC(=O)Nc1cccc(Oc2nc(Nc3ccc(N4CCN(C)CC4)cc3OC)ncc2Cl)c1 [ONC0004489, wz4003]",69.3
15,"CCCCc1ccc(NS(=O)(=O)c2ccc(F)cc2)cc1 [ONC0003590, dc260126]",102.1
16,"C=CC(=O)Nc1cccc(Nc2nc(Nc3ccc(OCCOC)cc3)ncc2F)c1 [ONC0005149, cc292 avl292]",103.2
17,"CCCOc1ccc(S(=O)(=O)N2CCN(CCO)CC2)cc1-c1nc2c(CCC)cn(CC)c2c(=O)[nH]1 [ONC0001035, mirodenafil dihydrochloride]",96.75
18,"c1ccc(-c2ccc(CNc3nc(-c4ccccn4)nnc3-c3ccccc3)cc2)cc1 [ONC0001674, ml228]",2.835
19,"Clc1cccc2c1CN(C1=NCCN1)C2 [ONC0000137, rs45041190]",104.6
20,"CO/N=C(\C(=O)N[C@@H]1C(=O)N2C(C(=O)OC(C)OC(C)=O)=C(COC(N)=O)CS[C@H]12)c1ccco1 (stereo partly shown) [ONC0005599, cefuroximeaxetil]",92.96

# 3 structures out of the list, arranged by molar mass, high to low:
row,SMILES,% viability [%]
4,"CC(NC(=O)CCc1nc(=O)c2ccccc2[nH]1)c1ccccc1 (stereo not shown) [ONC0005174, me0328]",117.9
15,"CCCCc1ccc(NS(=O)(=O)c2ccc(F)cc2)cc1 [ONC0003590, dc260126]",102.1
13,"Cc1c(-c2ccccc2F)[nH]c(N)c1C#N [ONC0003774, ns8]",112.5
